Test results reported in the supplement of paper PMC3334620.
In all, about 33,000 sequences were measured (“E-score (-0.5 to 0.5)”: median about -0.0059, highest 2% from about 0.26 on). This is one part of the list.

target: T1, Cin5 (UniProt P40917); assay: PBM E-score (8-mer binding enrichment) (E-score (-0.5 to 0.5)); higher = stronger / more preferred TF binding; settings: protein concentration: 100 nM; construct: GST-full length
T1 sequence: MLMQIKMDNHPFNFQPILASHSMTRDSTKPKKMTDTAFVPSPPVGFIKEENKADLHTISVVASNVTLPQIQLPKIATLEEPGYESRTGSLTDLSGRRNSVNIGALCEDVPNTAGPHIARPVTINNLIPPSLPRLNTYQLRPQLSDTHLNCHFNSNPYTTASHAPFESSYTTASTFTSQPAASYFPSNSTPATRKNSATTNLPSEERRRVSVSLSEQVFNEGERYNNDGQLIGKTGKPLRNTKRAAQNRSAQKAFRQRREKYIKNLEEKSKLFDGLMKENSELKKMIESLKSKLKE
Outline: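 Detection of bound protein used fluorescent anti-GST, with scans normalised by masliner. The proteins were GST-tagged yeast transcription factors applied at about 100-200 nM to universal all-10-mer Agilent arrays made double-stranded by primer extension. Each ungapped eight-base word, pooled with its reverse complement, was scored with an E-score from the Universal PBM Analysis Suite.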

Sequence | PBM E-score
GCGCCACC | -0.183
ATTTCATC | 0.183
CAGGAATC | 0.0947
TATAATGA | 0.21
GGTTCAAA | -0.0366
ATTAAGTG | 0.156
CGCACCAG | -0.0346
AGAACCAG | -0.149
CGTATCCC | -0.115
GAGCTCCA | -0.092
AGCATCAC | 0.0209
ATAATTAA | 0.303
ACAAGTGT | -0.0377
ACATGGAG | -0.173
AAGACATT | -0.0512
GATCGGTA | 0.12
ACGATCTG | -0.109
AGCAGGGC | -0.161
GCACCGCC | -0.171
GCATGAAA | 0.0866
CTGGTATC | -0.0697
CGCCCTGA | 0.043
ATAAACAC | -0.00689
GCCAAAAA | -0.014
TGGGACAA | 0.0574

Sequence | PBM E-score
CGCCGATC | -0.0423
ACGAACAG | -0.126
ACATTCCT | -0.0761
CATCTCTA | 0.121
AAGAACCG | 0.0989
GACCGCAA | 0.111
GCGGTTCA | -0.0752
GCAACCTA | -0.0779
CCAGCACG | -0.0764
CCCCCAAG | -0.367
AGCCGAAC | 0.00618
CTCAGGAC | -0.00729
ACTTCTAT | 0.0803
CCTCCAGG | -0.325
AACTACAT | 0.122
CACAAACC | 0.0346
ATGCACGA | 0.0769
TAACCAAA | 0.175
TGGGCCCA | 0.0488
ACTAGGTA | 0.0879
CCGACATA | 0.0654
AAAAGGCT | -0.0964
TGACTAAA | -0.0431
CTAAATAC | 0.085
CTTGATGA | 0.214

Sequence | PBM E-score
ACCTGTCG | -0.0649
CGTCGAAG | -0.0709
CGAAGATC | -0.0401
CGTCCATC | -0.0657
AGTGGTAA | 0.0989
ATTGAGAA | 0.203
ACCGTCGA | -0.229
GGCGTAAA | 0.017
AGAAATCC | -0.0149
AGGGATTA | 0.0341
CGAAGAAG | 0.061
GAACGGGA | -0.0917
ACCCAAGC | -0.209
AATCCGTC | 0.152
ACTACCAC | 0.017
CCTGAGCA | -0.0888
AGGATACA | -0.0837
CCTTGGAA | -0.0557
GTGGCGGA | -0.226
GACAAGGA | -0.109
CTAGTGCC | -0.168
AAACTCTT | -0.256
CAGCCACG | -0.122
ACAAGGCA | -0.0252
ACTACCTG | 0.0858

Sequence | PBM E-score
GAGTGGCA | -0.0399
AGTCTCAA | -0.166
GTACACAC | 0.0505
CGTAATAG | 0.223
TAGGTCAA | 0.0917
ATAGTCTA | -0.0255
TCCGTCCA | 0.0885
CCCCCATC | -0.318
CCTAATTA | 0.0517
GTCCTTAA | 0.11
AATCCGGC | 0.0181
ACAAACAA | 0.144
CTGCATCC | -0.0651
ATATATTC | 0.248
CAGTCATC | -0.111
CCACCTGC | 0.0307
CCTTTCTC | -0.1
CGTACCGA | -0.0821
CATAGAGG | -0.0883
AGCATTAT | 0.177
GCGGGTAA | 0.0106
GGCCGTAC | -0.0654
ACCCGAAA | 0.0973
ACGAGGTC | 0.00932
GGGTATTA | 0.173

Five entries from above, in CSV form:
Sequence,PBM E-score
AGTCTCAA,-0.166
ATAGTCTA,-0.0255
TCCGTCCA,0.0885
CTGCATCC,-0.0651
ACCCGAAA,0.0973

Remaining list, next part:

Sequence | PBM E-score
CTCATTTC | -0.04
ATATGTGC | -0.00628
CGTGAACA | 0.0134
AATTAGGC | 0.164
ATTTGCCC | 0.0256
ACTGGTAC | 0.0272
ATACCGAG | -0.0821
CGTCATGA | 0.164
ATAGCAGC | -0.206
AAATAAGT | 0.12
ATACATAC | 0.0724
ACCCTAGC | -0.0454
GTAGTGGA | 0.113
CCCTCCTC | -0.262
ACCACTCG | 0.0377
AGTCTTTG | -0.215
GGCCTTGA | -0.101
TCTTTCAA | -0.0045
CTTTGACC | 0.0175
AATCTCTC | 0.0151
ACGTACCA | 0.0419
CGGATTCA | -0.0163
GCATCGGA | 0.069
GCTGAGGA | -0.161
ACGGTTAG | -0.21

Sequence | PBM E-score
TAACAGCA | 0.128
AACAGCAC | -0.0967
AATCCGAG | 0.014
AGGAATGC | -0.064
AAGCTCTG | -0.18
GTTTAGTA | 0.162
CTAAGCAA | 0.076
ACGAATTG | -0.043
GAGCTTCA | 0.0888
AGTTTCTG | 0.0528
GTTTTGCA | 0.0968
CGAACGAA | 0.0963
AGCTCTCA | -0.0678
CCCAGTGC | -0.0746
GATCGAAC | -0.0729
GCGGTTAC | 0.0688
CAAGTTTA | 0.0995
ATACTCCC | -0.0138
AAGTAGTA | 0.165
CGCGAATC | 0.0184
ACCAAGAA | 0.0753
TTCGAAAA | 0.0825
ATTTAGCA | 0.109
TAGCAGAA | 0.0966
AGGATGAG | 0.0326

Sequence | PBM E-score
ACGTGGAA | -0.00812
AGGGAGAC | -0.0805
CCTCTGGC | -0.225
GTTGCCCA | 0.0544
AGCTTGTG | 0.00797
GTGCTACA | -0.106
CTTGGCCC | -0.227
GGATCCCC | -0.266
CATCTGCA | 0.0416
GTAATCCA | 0.281
AACGGAAG | 0.18
CCGTTCAA | 0.0867
AGAATCAA | 0.102
CCGAAACC | -0.166
ACTCCATG | -0.138
CACGCTAG | -0.0393
GGGCTAAC | -0.224
AACTCATC | 0.158
CGGCGTGC | -0.169
GCAGAGCC | -0.258
CTATTGCC | 0.0119
AACACTGA | 0.271
AAGCGGCG | -0.0619
GAGTGGGC | -0.121
AATTCTGC | 0.084

At a glance, part of the list above:
Sequence | PBM E-score
AACTCATC | 0.158
CGGCGTGC | -0.169
GCAGAGCC | -0.258
CTATTGCC | 0.0119

The list continues:

Sequence | PBM E-score
CACAACCA | 0.115
TACATCAA | 0.0545
AGATTTGG | -0.0986
CCGACTCG | -0.148
CACTTCGC | -0.134
GCCTGTAC | -0.0799
CCGGCTCG | -0.204
CGACGAGA | -0.00879
CATGAAAA | 0.171
GGGAACCC | -0.0812
AAGTATCC | -0.0119
AACTGTAG | 0.15
CGGACACG | -0.136
AAATACAA | 0.183
CGGGGGTC | -0.417
GCCAGCGA | -0.213
AATAAGTC | -0.0024
AGACCACT | 0.0688
AACTTATT | 0.244
AACGGTTA | -0.119
ACACTAGC | -0.114
AACAGAGA | 0.124
ATGGGGCC | -0.318
CTATGTTC | 0.0326
CAATGAAG | 0.0401

Sequence | PBM E-score
AATAGTAT | 0.248
CCATCAAC | 0.00401
TGCCCGAA | -0.00457
GAGAAGCC | -0.0341
ACGCCTTA | -0.164
CCACGGAA | 0.109
GAAGTCGC | -0.016
GTATCCGA | -0.0305
GAGCTACC | -0.168
CCAATAAG | 0.00457
GCTGTGCC | -0.0568
ACTTCCAT | 0.017
GGGTCCTA | -0.153
CATTGACC | 0.207
ATTTTCCA | 0.15
CGACAACA | 0.109
GGTCGCAC | -0.0457
CTTCATAA | 0.191
CCACTAGG | -0.2

Some values from the entries so far:
PBM E-score with CATTGACC reads 0.207
PBM E-score with ATTTTCCA reads 0.15
PBM E-score with GGTCGCAC reads -0.0457
PBM E-score with GGGTCCTA reads -0.153
